Assay [1] concerns the target ETHYLENE RESPONSE FACTOR4 isoform ERF4-R, recombinant (GST-ERF4-R and 6xHIS-ERF4-R) (Arabidopsis thaliana) (UniProt O80340). The assay is described as follows: pull-down; 500 ug total protein of E. coli crude extracts mixed, 1 h at room temperature; 6xHIS-tagged protein held on HIS-select nickel magnetic agarose beads (wash: 50 mM NaH2PO4, 300 mM NaCl, 10 mM imidazole; elution with 300 mM imidazole); GST-tagged protein detected in the eluate by anti-GST Western blot. For orientation: A western blot detects proteins with antibodies after separation by electrophoresis.

By UniProt entry, the sequences of proteins in these tests, tags left out.
UniProt O80340: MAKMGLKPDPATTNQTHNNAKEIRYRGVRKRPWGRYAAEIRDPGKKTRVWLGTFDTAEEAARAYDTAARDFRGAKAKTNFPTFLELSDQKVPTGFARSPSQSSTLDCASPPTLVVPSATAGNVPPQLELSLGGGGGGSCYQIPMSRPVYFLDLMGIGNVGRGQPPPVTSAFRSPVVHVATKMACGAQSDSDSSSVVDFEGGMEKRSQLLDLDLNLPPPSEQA

For assay [2], the target named is ERF4-R fused to the N- or C-terminal part of eYFP (BiFC) (Arabidopsis thaliana) (UniProt O80340). In words: split reporter; BiFC-2in1-NN vector (N- and C-terminal part of eYFP at the N-termini of both partners, RFP as transformation control) in Arabidopsis Col-0 protoplasts, overnight; percentage of cells with eYFP signal by flow cytometry; also confocal microscopy. For orientation: Flow cytometry measures light scatter and fluorescence of single cells or particles in a stream.

Assay [3] deals with WRKY53 fused to the N- or C-terminal part of eYFP (BiFC) (Arabidopsis thaliana) (UniProt Q9SUP6). The assay is described as above.

These are yes or no findings as the source states them, for the method shown. Binding seen in cells or lysates may run through a third protein. Some results given as binding are weak or reduced against the parent protein; the word gives no strength. For part of these data: Where a sequence is shown, tags or fusion partners need not be part of it.

As for “ETHYLENE RESPONSE FACTOR4 isoform ERF4-R, recombinant (GST-ERF4-R and 6xHIS-ERF4-R) (from UniProt O80340 1-222)”, the binding result in assay [1] was “binds”.
Regarding “ERF4-R fused to the N- or C-terminal part of eYFP (BiFC) (from UniProt O80340 1-222)”, the binding entry in assay [2] was “binds”.

B1: WRKY53 fused to the N- or C-terminal part of eYFP (BiFC) (protein, UniProt Q9SUP6 1-324)
chain: MEGRDMLSWEQKTLLSELINGFDAAKKLQARLREAPSPSSSFSSPATAVAETNEILVKQIVSSYERSLLLLNWSSSPSVQLIPTPVTVVPVANPGSVPESPASINGSPRSEEFADGGGSSESHHRQDYIFNSKKRKMLPKWSEKVRISPERGLEGPQDDVFSWRKYGQKDILGAKFPRSYYRCTHRSTQNCWATKQVQRSDGDATVFEVTYRGTHTCSQAITRTPPLASPEKRQDTRVKPAITQKPKDILESLKSNLTVRTDGLDDGKDVFSFPDTPPFYNYGTINGEFGHVESSPIFDVVDWFNPTVEIDTTFPAFLHESIYY
On to B1, for which, in assay [3], the binding entry is on record as “binds”.

The values are drawn from paper PMC6409740.
